Test results published in patent publication US20150238637A1, “Blood-brain Barrier Epitopes and Uses Thereof” (NATIONAL RESEARCH COUNCIL OF CANADA, priority 2005, published 2015).
Some entries share one result that the patent states for a list of compounds. At least one compound was matched to its structure with a doubt left.

System: HCEC monolayers
Assay: Transport across the in vitro blood brain barrier model
Assay type: cell-based, human
Details: 30 minutes pre-incubation
Protocol: HCEC (80,000 cells/membrane) were seeded on a 0.5% gelatin coated Falcon tissue culture inserts (pore size-1 μm; surface area 0.83 cm^2) in 1 ml of growth medium. The bottom chamber of the insert assembly contained 2 ml of growth medium supplemented with the fetal human astrocyte-conditioned medium in a 1:1 (v/v) ratio (Muruganandam et al., 1997).
Transport studies were performed 7 days post-seeding as described previously (Muruganandam et al., 1997; Muruganandam et al., 2002). […] The amount of FC5 transported across empty inserts or HCEC monolayers was determined by enzyme linked immunosorbent assay (ELISA) (see below). To control for HCEC membrane integrity and to estimate paracellular diffusion, the apical-to-basolateral and basolateral-to-apical clearance rates of [^14C]-sucrose were determined and calculated essentially as described previously (Muruganandam et al., 2002; Garberg et al., 2005) across the same monolayers used for FC5 transport studies. Sample-associated radioactivity in 50 μl aliquots was measured using a Mircobeta Trilux liquid scintillation counter (Wallac, Finland).
Clearance was calculated as Cl (ml)=CA/CI×VA, where CI is the initial tracer or sdAb concentration in the donor chamber, CA is the tracer or sdAb concentration in the accepter chamber, and VA is the volume of the acceptor chamber. […]

| Structure (SMILES) | reduction of apical to basolateral transport of FC5 across HCEC (cytochalasin D 0.5 μM) | reduction of apical to basolateral transport of FC5 across HCEC (latrunculin A 0.1 μM) |
| --- | --- | --- |
| C=C1[C@@H](C)[C@H]2[C@H](Cc3ccccc3)NC(=O)[C@]23[C@H](OC(C)=O)/C=C/[C@@](C)(O)C(=O)[C@@H](C)C/C=C/[C@H]3[C@@H]1O [cytochalasin D] | 70-80% | – |
| C/C1=C/C(=O)O[C@@H]2C[C@@H](CC[C@H](C)/C=C\C=C\CC1)O[C@@](O)([C@@H]1CSC(=O)N1)C2 [latrunculin A] | – | 70-80% |
